Measured values taken from patent US20210238281A1.
Results are given in words; binding and its absence hold for the method and conditions named. Some results given as binding are weak or reduced against the parent protein; the word gives no strength.

By UniProt entry, the sequences of proteins in these tests, tags left out. Residues count along the entry.
UniProt Q16653, residues 30-154: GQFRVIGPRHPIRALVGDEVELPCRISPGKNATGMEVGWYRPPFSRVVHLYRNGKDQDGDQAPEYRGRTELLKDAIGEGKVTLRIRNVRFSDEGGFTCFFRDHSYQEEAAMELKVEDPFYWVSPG
UniProt Q61885, residues 29-156: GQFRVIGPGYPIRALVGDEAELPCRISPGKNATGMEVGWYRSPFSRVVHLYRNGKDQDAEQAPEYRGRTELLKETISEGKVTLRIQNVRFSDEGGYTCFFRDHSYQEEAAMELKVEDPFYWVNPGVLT

Tests used:
[1] = target: recombinant human MOG protein (human) (UniProt Q16653); assay: phage-scFv ELISA, compared with phage-scFv-8-18C5 positive control
[2] = target: recombinant murine MOG protein (murine) (UniProt Q61885); assay: as above

| binding [1] | binding [2] | Binder |
| --- | --- | --- |
| binds | binds | anti-MOG MO3I-30 antibody (scFv, V domains shown) VH: EVQLLESGGGLVQPGGSLRLSCVASGFTFRSYWMHWVRQDPGEGLVWVSRVSGDGSSTNYADSVKGRFVISRDNAKDTLYLQMYSLRGEDTAVYYCLRGNDGYGNFDYWGQGTTVTVSS VL: DVVMTQSPLSLPVTLGQPASISCRPSQSLVYSDGNTYLNWFQQRPGQSPRRLIYKVSNRDYVVPDRFSGSGSGTDFTLKISRVEAEDVGVYYCMQGTHWPLTFGGGTKVEIK |
| binds | binds | anti-MOG MO3I-60 antibody (scFv, V domains shown) VH: EVQLVESGGGLVKPGGSLGLSCAASGFTFTNAWGHWVRQAPGKGLEWVGRIKSKTDGGTTDYAAPVKDRFSISRDDSKNTLYLQMNSPTTEDTAVYYCATENGMDIVTTFDSWGQGTLVTVSS VL: AIRMTQSPSSLSASVGDRVTITCRASQSIGSYLSWYRQKPGKAPKLLIYDSSTLQSGVASRFSGSGSGTDFTLTISALQPEDFATYYCHQSYRTPLSFGGGTKVEIK |
| binds | binds | anti-MOG MO4H-118 antibody (scFv, V domains shown) VH: EVQLVQSGAEVKKPGASVKVSCKVSGYTLTELSMHWVRQAPGKGLEWMGGFDPEDGETIYAQKFQGRVTMTEDTSTDTAYMELSSLRSEDTAVYYCATIGPKVAAHTYYFDYWGQGTLVTVSS VL: DIQLTQSPSSLSASVGDRVTITCRASQTIVTYLNWYQQKPGKAPNLLITDASSLQSGVPSRFSGTESGTDFTLTISSLQPEDFGSYYCQSYMNPITFGQGTRLEIN |
| binds | binds | anti-MOG MO4H-46 antibody (scFv, V domains shown) VH: QVQLVQSGAEVKKPGASVKVSCKASGYTFTSYAMHWVRQAPGQRLEWMGWINAGNGNAKYSQKFQGRVTLTRDTSASTAYMKLSSLRSEDTAVYYCARGAPTYRYFDLWGRGTLVTVSS VL: QSVLTQPPSVSAAPGQKVTISCSGSSSNIGNNYVAWYQQLPGTAPKLLIYDNNKRPSGIPDRFSGSKSGTSATLGITGLQTGDEADYYCGTSDSSLSAVVFGGGTKLTVL |
| binds | binds | anti-MOG MO3I-34 antibody (scFv, V domains shown) VH: EVQLVQSGAEVKKPGASVKVSCKASGYTFTSYGISWVRQAPGQGLEWMGWISAYNGNTNYAQKLQGRVTMTTDTSTSTAYMELRSLRSDDTAVYYCARNMGCSSTSCFVSWFDPWGQGTLVTVSS VL: QSVLTQPPSVSAAPGQKVTISCSGSRSNIGSNYVSWYQQLPGTAPKLLIYDNTRRPSGIPDRFYGSKSGTSATLDITGLQTGDEADYHCATWDSSLSALLFGGGTKVTVL |
| binds | binds | anti-MOG MO4H-04 antibody (scFv, V domains shown) VH: EVQLVQSGAEVKKPVASVKVSCKASGYTFTSYGISWVRQAPGQGLEWMGWISAYNGNTNYAQKLQGRVTMTTDTSTSTAYMELRSLRSDDTAVYYCARNMGCSSTSCFVSWFDPWGQGTLVTVSS VL: QSALTQPPSASGSPGQSVTISCTGTHSDVGSFDSVSWYQQHPDKAPKLIIYDVNKRPAGVPHRFSGSKSGNTASLTVSGLQSEDEADYYCNSYAGVDNFVFGTGTKVTVL |
| binds | binds | anti-MOG MO4H-03 antibody (scFv, V domains shown) VH: QVQLVQSGTEVKKPGASVKVSCKVSGYTLTELSMHWVRQAPGKGLEWMGGFDPEDGETIYAQKFQGRVTMTEDTSTDTAYMELSSLRSEDTAVYYCATGATGAFDIWGQGTTVTVSS VL: DIVMTQTPLSSPVTLGQPASISCRSSQSLVDSDGNTYLNWLQQRPGQPPRLLIYKISNRFSGVPDRFSGSGAGTEFTLKISRVEAEDVGVYYCMQATQFPHTFGQGTKLEIK |
| binds | binds | anti-MOG MO3I-63 antibody (scFv, V domains shown) VH: QVQLVQSGAEVKTPGASVKISCKASGYAFTSYAMHWVRAPGQGLEWMGWINAANANTKYSQRFQGRVTITRDTSASTAYMELNSLRSEDTAVYYCASSEDISRSNYYNYYMDVWGKGTTVTVSS VL: DIVMTQSPSSLSASVGDRVTITCRASQTITTSLAWFQHRPGKAPKLLIYSASSLQSGVPSRFSGSGSGTDFTLTISSLQPEDFATYSCQQTYSAPPTFGGGTKVEIK |
| binds | binds | anti-MOG MO3I-33 antibody (scFv, V domains shown) VH: DQVQLVQSGAEVKPGATVKISCKVSGYTFTDYYMHWVQQAPGKGLEWMGLVDPEDGETIYAEKFQGRVTITADTSTDTAYMELSSLRSEDTAVYYCATSYHGTSGFDYWGQGTLVTVSS VL: QSVVTQPPSVSGAPGQRVTIACTGSNSDIGAGHDVHWYQQFPRTAPKLIIFGNTNRPSGVPDRFSGSKSGTSASLVITGLQADDEADYHCQSYDNNLSGPIFGGGTKLTVL |
| binds | binds | anti-MOG MO3I-69 antibody (scFv, V domains shown) VH: DQVQLVQSGAEVKPGASVKVSCKASGYTFTYYYLHWVRQAPGQGLEWMGWINPNSGATIFAQKFQGRVTLTRDTSISTAYLDLSRLRSDDTAVYYCARASMAYQYHSDVDYWGLGTLVTVSS VL: QSVLTQPPSVSGAPGQRVTISCTGSSSNIGAGYDVHWYQQLPGTAPKLLIYGNSNRPSGVPDRFSGSKSGTSASLAITGLQAEDEADYYCQSYDSSLVVFGGGTKLTVL |
